From the supplement of paper PMC5949888
Most values lie at the floor of the assay. Slopes are relative: functional sequences can read slightly below zero.

Test system: Saccharomyces cerevisiae PS128 hsf1 delta, HSF1(1-493) fusion
Test: growth estimate (transactivation domain function in HSF1 fusion, heat-shock survival) (a.u. (slope of normalised read count over time)); higher = stronger growth at 37°C, i.e. more transactivation activity
Settings: library: random library

Substance | growth estimate
IKIHLDAHTQ | < -0.25
RVRRTSTNEPDRLDSDVRQC | < -0.25
CPLLSGSHRYSGG | < -0.25
YGVEA | < -0.25
MVWDGSLVISGSTALALLES | < -0.25
TSGGPGAW | < -0.25
VPPC | < -0.25
GGKGYLQID | < -0.25
TSHQLPGPFPCSDLLYHIRV | < -0.25
QFRV | < -0.25
SDIMWRTVRRS | < -0.25
PWGLTCF | < -0.25
INAVGYSVRLSL | < -0.25
ACHVT | < -0.25
QSHSDTPQSAWGGTLL | < -0.25
IVCLRKAQR | < -0.25
LVPSRCSIEIASSVSLPLHD | < -0.25
ADPVRFHR | < -0.25
GAVHLVRYPSLSPTDNSDSR | < -0.25
FSFANSGSSV | < -0.25
SASLWTSTGLQTQ | < -0.25
RGIAAGLKILGGRRDRLGAL | < -0.25
QMLCFKT | < -0.25
DPGTISGHTASLLSRKYLS | < -0.25
SVNLRQTDLRPILCEKRLCV | < -0.25
GHKCQDRL | < -0.25

Substance | growth estimate
RIGLK | < -0.25
SCRKSVWSKA | < -0.25
GRALFNKRHKGVSGSVIEQT | < -0.25
YYRFHQLGAQYFTTSVTIGP | < -0.25
GQPVSDTVVWDWGFTAQEEP | 0.283
QPEDDDSAWPKRIVAMTLLS | < -0.25
GGGLFLMGRYVEFEYDFSGL | < -0.25
TELNM | < -0.25
AFY | < -0.25
NWWAASCHSLV | < -0.25
CRINSSRSWTGLSRLPMSPL | < -0.25
SSVPVRTRCTDKSTTKKRKL | < -0.25
ACVPCVRATRGIGALYFSPD | < -0.25
SLS | < -0.25
FPTLCRDYGRVHVSPASTTA | < -0.25
HQTRQGCRLSNVCLAAWRPL | < -0.25
HEDYCWGIASHASLDPAT | < -0.25
SGLLCVA | < -0.25
LDESGAF | < -0.25
DSLPTSTR | < -0.25
SLLCLRAPFTTGLSSKELRD | -0.201
SQLFGIRF | < -0.25
FKNLNSRCSVTASTEKDLSR | < -0.25
VKCLRKTREICGLNMSGCLD | < -0.25
LEG | < -0.25
EVMVSVVGSAISHVAVINDA | < -0.25

Substance | growth estimate
GAGFGIS | < -0.25
YVHHLPG | < -0.25
VTYGVGITSPHPCSKTCVQN | < -0.25
RLLAMSIIKLPNWNTVPDGR | < -0.25
YDSDSARIGQ | -0.246
HIEIIATRDVCSLSVRHNAT | < -0.25
KVGSCKSRAFD | < -0.25
IVSVWTESLMHGRPNGDHVT | < -0.25
PRRVPPCGPQA | < -0.25
RCSLLANGVDSGELGASLP | < -0.25
ALCAVWTEDSLTL | < -0.25
SSHVGVRPVGFGQGRWDTPH | < -0.25
APVGYW | < -0.25
TVPSIGQRIGLARPRADK | < -0.25
YHLHYSLRA | < -0.25
SQAQRQKCNHTVSFHLWGGA | < -0.25
KAGANAIYNPRMLSGASHDR | < -0.25
SVEAGYLLAIPVIGSVAACR | < -0.25
FGGL | < -0.25
FPPQDVFNRGPGQTRA | < -0.25
CVVSRVSMLQNLMKRQLVSV | < -0.25
LLDLVT | < -0.25
FRYFPYNILLTQCTGLRVAQ | < -0.25
TRWTRGIAGRNLTLVL | < -0.25
LVTRCPLMVRDPNREWWL | < -0.25
RSRLLAVTDIFS | < -0.25

Substance | growth estimate
QTGIFVSRNSDGPLGPHRLA | < -0.25
GEAS | < -0.25
SFSKRSTSVVIHAAGPCLMT | < -0.25
TGNLDSFSPSGLIDLH | < -0.25
RFYGGCTSLLYPIRV | < -0.25
PAIGGDRSAIGMQKLSKTSL | < -0.25
SVSS | < -0.25
LTVHTRMVGHNVQLIGRHIL | < -0.25
CRAAVRVTAT | < -0.25
LIWPGRHLIRRKGAKHQFPP | < -0.25
TSREHS | < -0.25
GYSTEVPYLGSEAEAR | < -0.25
NNFIVGRQRI | -0.25
VKMCSP | < -0.25
SSRPASRSDYDEHQ | < -0.25
LKIMEAFDVCFFQLVWDQGR | < -0.25
CRHKCEGVIGPSVSF | < -0.25
YDDSEYGVVRIYVVTGWEAA | < -0.25
EMQISVLPGL | < -0.25
VGQPPVGDSDWILMKRLS | < -0.25
LRRDLELMAERCPPLGFCPF | < -0.25
MLY | < -0.25
YSHSSY | < -0.25

Pulled one by one from the list above (6):
Substance | growth estimate
GGKGYLQID | < -0.25
SQAQRQKCNHTVSFHLWGGA | < -0.25
SDIMWRTVRRS | < -0.25
LDESGAF | < -0.25
RSRLLAVTDIFS | < -0.25
DSLPTSTR | < -0.25
